Test results taken from PubChem BioAssay AID252 (DTP/NCI, 2004).
The list is a part of this screen's results and no random one: it gathers tests that were run many times, whatever their T/C, doses with no T/C, and many T/C values between a quarter and a half above the control. Other doses and runs of a compound stand elsewhere. T/C gives the treated animals as a percentage of the vehicle group. Some entries give survivors of the animals treated and no T/C: the source files T/C as zero there, which appears to mark a toxic dose or a test without result, not a measured value. Some survivor counts are full or nearly so, which does not show that the dose was tolerated: survival well below the control is almost never listed, so the zero probably covers shortened survival too. Counts of survivors are from the toxicity check (mostly the fifth day) where no day follows; animals may have died later. Schedule codes are those of the source, read here as Q, the interval in days (D) or hours (H), X, the number of doses. Where survival is the endpoint, this PubChem deposit counts one and a half times the control or more as active, and values a quarter to a half above the control carry no call in these data; other NCI protocols may use other cut-offs. Some T/C values are followed by the survivors on the day toxicity was checked, most often the fifth; where none is given, no animal had died by that day. Some entries were tested several times; their values stand side by side, smallest first. Brackets with × stand for listed records that agree.

Test system: BDF1 mice, intracerebral L1210 leukemia, survival T/C
Experiment: NCI In Vivo Anticancer Drug Screen. Data for tumor model L1210 Leukemia (intracerebral) in B6D2F1 (BDF1) mice
Conditions: higher T/C = longer survival
Outline: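 Survival measured in treated and vehicle-control tumour-bearing mice; value = T/C.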

[1] = T/C endpoint: mean survival time, dose: 91.0 mg/kg/injection, schedule: Q01DX001 (oral), vehicle: other
[2] = T/C endpoint: mean survival time, dose: 25.0 mg/kg/injection, schedule: Q01DX009 (ip), vehicle: saline
[3] = T/C endpoint: mean survival time, dose: 50.0 mg/kg/injection, schedule: Q01DX009 (ip), vehicle: saline

CC1CCC(NC(=O)N(CCCl)N=O)CC1 (stereo not drawn)
survivor count (T/C endpoint: mean survival time, dose: 2.0 mg/kg/injection, schedule: Q01DX001 (ip), vehicle: saline): 4 of 10 | T/C (T/C endpoint: mean survival time, dose: 2.5 mg/kg/injection, schedule: Q01DX009 (ip), vehicle: saline): 138 % of control | T/C (T/C endpoint: mean survival time, dose: 3.2 mg/kg/injection, schedule: Q01DX001 (ip), vehicle: other): 103 (3×), 104, 105 (2×), 107, 112, 115, 116, 118, 142, 143, 174 % of control | T/C (T/C endpoint: mean survival time, dose: 4.0 mg/kg/injection, schedule: Q01DX009 (ip), vehicle: other): 144 % of control | T/C (T/C endpoint: mean survival time, dose: 5.4 mg/kg/injection, schedule: Q01DX001 (oral), vehicle: other): 133 % of control | T/C (T/C endpoint: mean survival time, dose: 6.0 mg/kg/injection, schedule: Q01DX001 (ip), vehicle: other): 107 (2×), 108, 109, 112 (2×), 115 (2×), 116 [9 of 10 alive], 119, 122, 127, 180 % of control (2×) | T/C (T/C endpoint: mean survival time, dose: 6.25 mg/kg/injection, schedule: Q01DX009 (ip), vehicle: Klucel (hydroxypropylcellulose) (HPC)): 128 % of control | T/C (T/C endpoint: mean survival time, dose: 10.0 mg/kg/injection, schedule: Q01DX001 (ip), vehicle: other): 142 % of control | T/C (T/C endpoint: mean survival time, dose: 13.0 mg/kg/injection, schedule: Q01DX001 (ip), vehicle: other, evaluated on day 45): 119 (2×), 120, 125, 128, 129, 132, 141, 150, 151, 155, 166, 175, 193 % of control | T/C (T/C endpoint: mean survival time, dose: 13.0 mg/kg/injection, schedule: Q01DX001 (ip), vehicle: other, run until all animals had died): 130 and 136 % of control | T/C (T/C endpoint: mean survival time, dose: 16.0 mg/kg/injection, schedule: Q01DX001 (ip), vehicle: Klucel (hydroxypropylcellulose) (HPC)): 128 % of control | T/C (T/C endpoint: mean survival time, dose: 16.0 mg/kg/injection, schedule: Q01DX001 (ip), vehicle: clinical formulation): 138 % of control | T/C (T/C endpoint: mean survival time, dose: 18.0 mg/kg/injection, schedule: Q01DX001 (ip), vehicle: other, evaluated on day 45): 133 and 144 % of control | T/C (T/C endpoint: mean survival time, dose: 18.0 mg/kg/injection, schedule: Q01DX001 (ip), vehicle: other, run until all animals had died): 136 % of control | T/C (T/C endpoint: mean survival time, dose: 20.0 mg/kg/injection, schedule: Q01DX001 (ip), vehicle: other): 143 % of control | T/C (T/C endpoint: mean survival time, dose: 24.0 mg/kg/injection, schedule: Q01DX001 (ip), vehicle: other): 142 % of control | T/C (T/C endpoint: mean survival time, dose: 24.0 mg/kg/injection, schedule: Q01DX001 (oral), vehicle: other, evaluated on day 45): 171 and 249 % of control | T/C (T/C endpoint: mean survival time, dose: 24.0 mg/kg/injection, schedule: Q01DX001 (oral), vehicle: other, evaluated on day 60): 173, 175, 200 % of control | T/C (T/C endpoint: mean survival time, dose: 27.0 mg/kg/injection, schedule: Q01DX001 (ip), vehicle: other, evaluated on day 45): 164, 196, 200, 202, 207, 234, 271, 277, 281, 307, 355, 383, 385, 387 % of control | T/C (T/C endpoint: mean survival time, dose: 27.0 mg/kg/injection, schedule: Q01DX001 (ip), vehicle: other, run until all animals had died): 145 % of control | T/C (T/C endpoint: mean survival time, dose: 32.0 mg/kg/injection, schedule: Q01DX001 (ip), vehicle: Klucel (hydroxypropylcellulose) (HPC)): 133 % of control | T/C (T/C endpoint: mean survival time, dose: 32.0 mg/kg/injection, schedule: Q01DX001 (ip), vehicle: saline): 142 % of control | survivor count (T/C endpoint: mean survival time, dose: 32.0 mg/kg/injection, schedule: Q01DX009 (ip), vehicle: other): 9 of 10 | T/C (T/C endpoint: mean survival time, dose: 36.0 mg/kg/injection, schedule: Q01DX001 (ip), vehicle: other, evaluated on day 45): 163 and 185 % of control | T/C (T/C endpoint: mean survival time, dose: 36.0 mg/kg/injection, schedule: Q01DX001 (ip), vehicle: other, evaluated on day 60): 192, 292, 364 % of control | T/C (T/C endpoint: mean survival time, dose: 36.0 mg/kg/injection, schedule: Q01DX001 (ip), vehicle: other, run until all animals had died): 208 % of control | T/C (T/C endpoint: mean survival time, dose: 54.0 mg/kg/injection, schedule: Q01DX001 (ip), vehicle: other, evaluated on day 45): 126, 135, 185 (2×), 196, 205, 211 (2×), 222, 227, 258, 318, 359, 371 % of control | T/C (T/C endpoint: mean survival time, dose: 54.0 mg/kg/injection, schedule: Q01DX001 (ip), vehicle: other, evaluated on day 60): 134, 198, 264 % of control | T/C (T/C endpoint: mean survival time, dose: 54.0 mg/kg/injection, schedule: Q01DX001 (ip), vehicle: other, run until all animals had died): 200 % of control | T/C (T/C endpoint: mean survival time, dose: 64.0 mg/kg/injection, schedule: Q01DX001 (ip), vehicle: Klucel (hydroxypropylcellulose) (HPC)): 138 % of control | T/C (T/C endpoint: mean survival time, dose: 64.0 mg/kg/injection, schedule: Q01DX001 (ip), vehicle: clinical formulation): 139 % of control [9 of 10 alive] | T/C (T/C endpoint: mean survival time, dose: 64.0 mg/kg/injection, schedule: Q01DX001 (ip), vehicle: saline): 128 % of control | T/C (T/C endpoint: mean survival time, dose: 64.0 mg/kg/injection, schedule: Q01DX001 (oral), vehicle: clinical formulation): 138 % of control | survivor count (T/C endpoint: mean survival time, dose: 64.0 mg/kg/injection, schedule: Q01DX009 (ip), vehicle: other): 8 of 10 | T/C (T/C endpoint: mean survival time, dose: 72.0 mg/kg/injection, schedule: Q01DX001 (ip), vehicle: other): 144 % of control | survivor count (T/C endpoint: mean survival time, dose: 80.0 mg/kg/injection, schedule: Q01DX001 (ip), vehicle: other): 8 of 10 | T/C (T/C endpoint: mean survival time, dose: 90.0 mg/kg/injection, schedule: Q01DX001 (oral), vehicle: other): 139 % of control | T/C [1]: 144 % of control | survivor count [1]: 10 of 10 | T/C (T/C endpoint: mean survival time, dose: 128.0 mg/kg/injection, schedule: Q01DX001 (oral), vehicle: clinical formulation): 133 % of control | survivor count (T/C endpoint: mean survival time, dose: 160.0 mg/kg/injection, schedule: Q01DX001 (ip), vehicle: other): 7 of 10 | survivor count (T/C endpoint: mean survival time, dose: 256.0 mg/kg/injection, schedule: Q01DX001 (ip), vehicle: clinical formulation): 5 of 10 | survivor count (T/C endpoint: mean survival time, dose: 256.0 mg/kg/injection, schedule: Q01DX001 (ip), vehicle: saline): 3 of 10 | survivor count (T/C endpoint: mean survival time, dose: 512.0 mg/kg/injection, schedule: Q01DX001 (oral), vehicle: clinical formulation): 3 of 10 | survivor count (T/C endpoint: mean survival time, dose: 1024.0 mg/kg/injection, schedule: Q01DX001 (oral), vehicle: clinical formulation): 0 of 10 | T/C (T/C endpoint: median survival time, dose: 8.0 mg/kg/injection, schedule: Q01DX001 (ip), vehicle: saline): 129 % of control | T/C (T/C endpoint: median survival time, dose: 16.0 mg/kg/injection, schedule: Q01DX001 (ip), vehicle: clinical formulation): 144 % of control | T/C (T/C endpoint: median survival time, dose: 64.0 mg/kg/injection, schedule: Q01DX001 (ip), vehicle: clinical formulation): 129 % of control | T/C (T/C endpoint: median survival time, dose: 64.0 mg/kg/injection, schedule: Q01DX001 (ip), vehicle: saline): 125 % of control | T/C (T/C endpoint: median survival time, dose: 128.0 mg/kg/injection, schedule: Q01DX001 (oral), vehicle: clinical formulation): 143 % of control

O=C1C(NCCO)=C(N2CC2)C(=O)C(NCCO)=C1N1CC1
T/C (T/C endpoint: mean survival time, dose: 0.37 mg/kg/injection, schedule: Q01DX009 (ip), vehicle: saline): 148 % of control | T/C (T/C endpoint: mean survival time, dose: 0.75 mg/kg/injection, schedule: Q01DX009 (ip), vehicle: saline): 131 and 148 % of control | survivor count (T/C endpoint: mean survival time, dose: 1.5 mg/kg/injection, schedule: Q01DX009 (ip), vehicle: saline): 6 of 6

COCCOCCN1CCN(CCCN2c3ccccc3Sc3ccc(C(F)(F)F)cc32)CC1
survivor count [2]: 0 of 6 | survivor count (T/C endpoint: mean survival time, dose: 35.0 mg/kg/injection, schedule: Q01DX009 (ip), vehicle: saline): 0 of 6 | survivor count [3]: 0 of 6

CC[C@H]1CN2CCc3cc(OC)c(OC)cc3[C@@H]2C[C@@H]1C[C@H]1NCCc2cc(OC)c(OC)cc21
survivor count (T/C endpoint: mean survival time, dose: 16.0 mg/kg/injection, schedule: Q01DX009 (ip), vehicle: saline): 8 of 10 | survivor count (T/C endpoint: mean survival time, dose: 64.0 mg/kg/injection, schedule: Q08DX002 (ip), vehicle: saline): 0 of 10

Cc1ncc(CNC(=O)N(CCCl)N=O)c(N)n1
T/C (T/C endpoint: mean survival time, dose: 3.13 mg/kg/injection, schedule: Q01DX009 (ip), vehicle: saline): 125 % of control | T/C (T/C endpoint: mean survival time, dose: 12.5 mg/kg/injection, schedule: Q01DX001 (ip), vehicle: saline): 125 % of control | T/C [2]: 133 % of control [5 of 6 alive] | survivor count [3]: 5 of 6

CC(C)(Cc1ccccc1)NC(=O)N(CCCl)N=O
T/C (T/C endpoint: mean survival time, dose: 750.0 mg/kg/injection, schedule: Q01DX001 (ip), vehicle: other): 126 % of control [9 of 10 alive] | T/C (T/C endpoint: mean survival time, dose: 1125.0 mg/kg/injection, schedule: Q01DX001 (ip), vehicle: other): 135 % of control [9 of 10 alive]

CN(N=O)C(=O)NC(=O)N(C)N=O
survivor count (T/C endpoint: mean survival time, dose: 108.0 mg/kg/injection, schedule: Q01DX001 (ip), vehicle: carboxymethylcellulose (CMC)): 8 of 10 | survivor count (T/C endpoint: mean survival time, dose: 216.0 mg/kg/injection, schedule: Q01DX001 (ip), vehicle: carboxymethylcellulose (CMC)): 0 of 10 | survivor count (T/C endpoint: mean survival time, dose: 432.0 mg/kg/injection, schedule: Q01DX001 (ip), vehicle: carboxymethylcellulose (CMC)): 0 of 10

O=NN(CCCl)C(=O)CCCCC(=O)N(CCCl)N=O
survivor count (T/C endpoint: mean survival time, dose: 150.0 mg/kg/injection, schedule: Q01DX001 (ip), vehicle: carboxymethylcellulose (CMC)): 9 of 10
